{"source": "patent US20220087990A1", "about": "“APPLICATION OF RIFAMYCIN-QUINOLIZIDONE CONJUGATE MOLECULE AND PHARMACEUTICALLY ACCEPTABLE SALT THEREOF” (priority 2019, published 2022)", "system": "Staphylococcus aureus CB1406 (wild type)", "type": "in vivo, Staphylococcus aureus; Balb/c mice", "procedure": "Test Drug: rifamycin-quinolizidone conjugate molecule I was provided by TenNor Therapeutics, Ltd., and was stored at −20° C. Other test compounds and reagents are commercially available. […] For remaining test agents, aqueous vehicles of sterile water, 5% sodium bicarbonate or 0.9% normal saline were added to the compound shown in formula I. The rifamycin-quinolizidone conjugate molecule formulation shown in formula I was administered at 30 mg/kg.\nBacteria: The bacteria used were biofilm forming Staphylococcus aureus strains. […] Minimal inhibit concentrations (MICs) were determined by broth microdilution assays recommended by CLSI. […]\nFormation and treatments of subcutaneous implant infections: the mice were anesthetized with isoflurane vapors (4 L/min). […] The mice were returned to their cages and regularly monitored for adverse reactions. […] Implant-associated bacteria were monitored by sampling colonized catheter segments during the course of implant surgeries and at regular intervals for up to 28 days post infection.\nSampling of infected implants: infected mice were euthanized by CO2 inhalation, then flanks were sterilized with 70% ethanol, and the infected catheter segments were excised into 1 mL of phosphate buffered saline pH 7.2 (1×PBS). […] Explanted samples were then snap frozen in dry ice/ethanol and stored at −80° C. until CFU counts were determined. […]", "data": [{"smiles": "CO[C@H]1/C=C/O[C@@]2(C)Oc3c(C)c(O)c4c(O)c(c(/C=N/N5CCC(N(C)C6([C@@H]7CCN(c8c(F)cn9c(=O)c(C(=O)O)cc(C%10CC%10)c9c8C)C7)CC6)CC5)c(O)c4c3C2=O)NC(=O)/C(C)=C\\C=C\\[C@H](C)[C@H](O)[C@@H](C)[C@@H](O)[C@@H](C)[C@H](OC(C)=O)[C@@H]1C", "note": "[I]", "values": [{"measurement": "resistance development to rifampicin or I (growth of recovered isolates on antibiotic containing plates)", "setting": "14-day treatment", "result": "No resistance development"}, {"measurement": "resistance to rifampicin or I", "setting": "rebound regimen, all sampling points", "result": "No resistance to rifampicin or I was observed"}]}]}
